Test results: article PMC11141880

Target: T1, Myc-tagged zebrafish atrogin-1 (zebrafish) (UniProt Q7ZTY2)
T1 sequence: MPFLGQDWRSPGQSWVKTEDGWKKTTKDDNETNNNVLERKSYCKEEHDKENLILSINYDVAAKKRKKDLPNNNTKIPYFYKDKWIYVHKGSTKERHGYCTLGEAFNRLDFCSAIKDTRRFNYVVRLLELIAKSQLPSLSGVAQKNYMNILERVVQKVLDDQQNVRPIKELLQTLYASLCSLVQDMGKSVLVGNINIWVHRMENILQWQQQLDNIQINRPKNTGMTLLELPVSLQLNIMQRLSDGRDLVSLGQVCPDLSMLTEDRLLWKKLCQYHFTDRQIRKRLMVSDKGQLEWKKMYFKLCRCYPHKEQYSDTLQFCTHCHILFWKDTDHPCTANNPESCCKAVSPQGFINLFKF
Experiment: co-IP; HEK293T cells cotransfected with Myc-atrogin-1 and/or BiP-HA (GFP as control); lysates in IP Lysis buffer with protease inhibitors; anti-Myc antibody-conjugated magnetic beads (c-Myc-Tag Magnetic IP/Co-IP Kit), overnight at 4°C; Western blot with anti-Myc and anti-HA

HA-tagged zebrafish BiP
binding: no binding

No constants are given. Whether binding was seen depends on the method and setting. Binding seen in cells or lysates may run through a third protein. Sequences can lack the tags named with a protein.
